Our source for the binding signal values is PMC7819943, “Rice protein-binding microarrays: a tool to detect cis-acting elements near promoter regions in rice”.

By UniProt entry, the sequences of proteins in these tests, tags left out.
UniProt Q0JBA9, entry or part of it: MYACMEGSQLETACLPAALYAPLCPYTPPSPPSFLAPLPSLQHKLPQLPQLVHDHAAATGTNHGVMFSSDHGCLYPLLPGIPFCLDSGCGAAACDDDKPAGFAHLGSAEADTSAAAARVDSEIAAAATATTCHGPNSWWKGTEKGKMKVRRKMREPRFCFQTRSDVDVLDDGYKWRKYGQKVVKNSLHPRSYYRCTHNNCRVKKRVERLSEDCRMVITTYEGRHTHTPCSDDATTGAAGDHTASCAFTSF

This is one part of the list.

This test has as its target OsWRKY34 (Oryza sativa, UniProt Q0JBA9 1-250). As to the kind of experiment: protein-binding microarray (RPBM); PBS, 2% BSA, 51.3 ng/ul salmon testes DNA, 50 uM zinc acetate, 200 nM TF, 25 C, 1 h; high values mean tight binding. The following applies: protein: recombinant; tags: N-terminal polyhistidine and DsRed monomer fusion (pET32a); label: CyDye5-dUTP incorporated in the synthesized complementary strand; 3' TTTTT single-stranded linker to array surface; dsDNA, one strand shown. In a few lines:
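Ni–NTA purification followed expression in E. coli BL21-CodonPlus of transcription factors fused N-terminally to a polyhistidine tag and DsRed. At 200 nM in PBS with 2% BSA, salmon testes DNA and 50 µM zinc acetate, the protein was incubated for 1 h at 25 °C with a custom Agilent array that had been primer-extended with Cy5-dUTP and blocked with 2% BSA. After washing, the array was read on an Axon 4000B scanner. The binding signal is per-feature fluorescence intensity in arbitrary units.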
“TGTGGTTAAGGGACTTTAAAAATTCTCGTGGTTAAGTTGACGGAGTCACCTAGTGCAG”: the binding signal is 8020 fluorescence intensity (a.u.).
In the case of “GGATCCGGGCATCTGGCTGCCCCGCCGCCACTCCGCCTAGCGGAGTCACCTAGTGCAG”, the binding signal was 8170 fluorescence intensity (a.u.).
To “TGTCTTCTTCTTTGCCTCTCCCATTGCCAGTTTGCCACTCCGGAGTCACCTAGTGCAG” belongs 8210 fluorescence intensity (a.u.); to “ATCGTTGTTAAGTTTTCGGTTGCATCCATCTGTTAAGTGCCGGAGTCACCTAGTGCAG”, 9150 fluorescence intensity (a.u.).
To “AATTCTATTACCTATAGGAAAGGTATGACCATGCTGTGTTCGGAGTCACCTAGTGCAG” belongs 8270 fluorescence intensity (a.u.); to “CTTCACTTGATCCATCTGAGTTGCTGCTTCATACGAGACCCGGAGTCACCTAGTGCAG”, 9020 fluorescence intensity (a.u.).
“GAAGATTTTGTTCCAGTTAATAACCCCAGCCAAACCAAACCGGAGTCACCTAGTGCAG”: the binding signal was 8520 fluorescence intensity (a.u.).
For “CCAACTTCTCCTTTTCAACCACCTACCTGACTTCACCGTTCGGAGTCACCTAGTGCAG”, the binding signal was 9420 fluorescence intensity (a.u.).
For the sequence “GTGTCTGCCTCTCTCTCTCGCGCGCGCAGCCTACCGCCACCGGAGTCACCTAGTGCAG”, the binding signal is 10000 fluorescence intensity (a.u.).
Turning to “GAATGATTCTTTCGCTGTTTATTTTCCCTGATCATTAATTCGGAGTCACCTAGTGCAG”, the binding signal was 9060 fluorescence intensity (a.u.).
To “CATGTAATTTTTTATTTGTTTTTGGACCACCTACCCTGTCCGGAGTCACCTAGTGCAG” belongs 8030 fluorescence intensity (a.u.); to “CTCTGCTTTGTCATTTCATACCTGATTTCAGTGTGGGAACCGGAGTCACCTAGTGCAG”, 8380 fluorescence intensity (a.u.); to “ATTTCCCAGCTAGTATATGCACGGTAATTTGGCACGTGCACGGAGTCACCTAGTGCAG”, 9610 fluorescence intensity (a.u.).
For the sequence “CAGTCACAGCCACTGGCGATTGTTTTCTCGCCGAAGTCATCGGAGTCACCTAGTGCAG”, the binding signal was 8810 fluorescence intensity (a.u.).
As for “GTGGTGGTGGTGAAAGGGTTAAGATTGCTCGTAGGATCCTCGGAGTCACCTAGTGCAG”, the figure is 8370 fluorescence intensity (a.u.).
With “GAGATCCAGAGAACTTTTTTTCTCCCTCTTGGATTCATTCCGGAGTCACCTAGTGCAG”, the binding signal is 8270 fluorescence intensity (a.u.).
As for “ATGTCAGCCTGTCACCGAATTCCACCGTTTATCCGAGGGACGGAGTCACCTAGTGCAG”, the figure is 8500 fluorescence intensity (a.u.); as for “ATCGACTGATTCATCCGTTCTCTTTGTACTCTGTGGTTTTCGGAGTCACCTAGTGCAG”, 11600 fluorescence intensity (a.u.); as for “CGGCTCGCAAGCCGTCGTTGCCACGGTCGCGCATGTCGCGCGGAGTCACCTAGTGCAG”, 9120 fluorescence intensity (a.u.).
With “AGAGTTTTTTCAGTTTCACTCTATTTCTTCTTTACTACTACGGAGTCACCTAGTGCAG”, the binding signal is 10200 fluorescence intensity (a.u.).
As for “ATTCTGTCTTGGTTTTTATAATGCGCATCTGATTCATTAACGGAGTCACCTAGTGCAG”, the figure is 11500 fluorescence intensity (a.u.); as for “GTTACTGTCTATAGATCACCATGTTACTGTCCGGTTTACTCGGAGTCACCTAGTGCAG”, 8420 fluorescence intensity (a.u.).
As to “ATCCTCGCCGCTTCTGCCGCCGCCGCCGGCTCCCCTCCTCCGGAGTCACCTAGTGCAG”, the binding signal was 8730 fluorescence intensity (a.u.).
Consider “CAGGATTGCTTGGAGATTCGTGCGGGGACGCGCGGGGTGACGGAGTCACCTAGTGCAG”, for which the binding signal was 9720 fluorescence intensity (a.u.).
To “GTACATGGGGTTCTCTGATATTTACTCTTTATTTTTCAATCGGAGTCACCTAGTGCAG” belongs 10400 fluorescence intensity (a.u.); to “TTTGTCCAGGTATCCATTTTGTCTCTCTTGTCCTCCGTTGCGGAGTCACCTAGTGCAG”, 9250 fluorescence intensity (a.u.); to “GCCTCTCACCACCTGCGAAACCACGGCTGACGCATCGATGCGGAGTCACCTAGTGCAG”, 8640 fluorescence intensity (a.u.).
“TGTATTCCTTCTTGTGCTCTGTTTTAATTTTTCTAATTTTCGGAGTCACCTAGTGCAG”: the binding signal was 9180 fluorescence intensity (a.u.).
For “CGCCTCGCCTCTTCCCAGTTCGCACTATCGCTTGCTTTCCCGGAGTCACCTAGTGCAG”, the binding signal is 8090 fluorescence intensity (a.u.).
“ACCACACCCATCCATCCATCCATCGACGCACGCGTCGTCGCGGAGTCACCTAGTGCAG”: the binding signal was 10000 fluorescence intensity (a.u.).
As for “GAAATCGGATCCCCTTGACGCAATCCTCTGGTTGGCATGACGGAGTCACCTAGTGCAG”, the figure is 8500 fluorescence intensity (a.u.).
For “CCCCTGACATCAATCGTCGCACCATCCATTCGATCGGTTTCGGAGTCACCTAGTGCAG”, the binding signal was 9930 fluorescence intensity (a.u.).
As for “GCAGAGCATTCCTATCTACTTCGCCTCAGCTTCCTGCACCCGGAGTCACCTAGTGCAG”, the figure is 8290 fluorescence intensity (a.u.).
As to “ATTTTTTTAAAAAAAATTGATTAATATGATTTTTAAAACACGGAGTCACCTAGTGCAG”, the binding signal is 11800 fluorescence intensity (a.u.).
To “TCTAGGGTGTTGCAACCAAATTCTTCGAGTGTTGTATCTCCGGAGTCACCTAGTGCAG” belongs 8960 fluorescence intensity (a.u.); to “GTTCCATCTGATTCTAGGGGTTGGTTTGGTTCGTGGCCTACGGAGTCACCTAGTGCAG”, 11400 fluorescence intensity (a.u.).
For “ACATTCAGGTCCTCATCGGTTGCTCATATTTTTAATAAGACGGAGTCACCTAGTGCAG”, the binding signal is 8800 fluorescence intensity (a.u.).
To “TAATACTACTACTCCTACCCTGACGCGTGACCCGGCCGGTCGGAGTCACCTAGTGCAG” belongs 8600 fluorescence intensity (a.u.); to “CTGTATTCATTCTTTCCATTGGTATCTGATTTTGCGGAAGCGGAGTCACCTAGTGCAG”, 10800 fluorescence intensity (a.u.); to “TTGTAGTCCGCTGCTTTCCCTTTCTTTTATCTTCTCTTTCCGGAGTCACCTAGTGCAG”, 8450 fluorescence intensity (a.u.).
In the case of “ATCTCATGGGTGAATCCATTCATCGATAGTGTGGTTTTGTCGGAGTCACCTAGTGCAG”, the binding signal was 9650 fluorescence intensity (a.u.).
As to “CATCTTCTTGCTCGTACAACGTAAATACTCGTACTACTACCGGAGTCACCTAGTGCAG”, the binding signal was 8830 fluorescence intensity (a.u.).
